According to publication PMC6944460:
No constants are given. Whether binding was seen depends on the method and setting. Binding seen in cells or lysates may run through a third protein. Some entries that bind do so weakly or less than the wild type. Where a sequence is shown, tags or fusion partners need not be part of it.

T1: InSyn1ΔM1-GFP (InSyn1 lacking a.a. 61-87, fused to GFP) (mouse) (UniProt Q8CD60)
T1 sequence: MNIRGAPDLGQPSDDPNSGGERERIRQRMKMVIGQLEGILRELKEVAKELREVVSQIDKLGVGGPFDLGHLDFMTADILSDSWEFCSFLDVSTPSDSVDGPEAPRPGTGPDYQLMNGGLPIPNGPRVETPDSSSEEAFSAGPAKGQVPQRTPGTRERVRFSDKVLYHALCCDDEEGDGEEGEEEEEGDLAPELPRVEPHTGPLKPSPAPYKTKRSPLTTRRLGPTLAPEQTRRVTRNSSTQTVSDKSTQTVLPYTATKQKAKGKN

T2: InSyn1ΔM2-GFP (InSyn1 lacking a.a. 88-180, fused to GFP) (mouse) (UniProt Q8CD60)
T2 sequence: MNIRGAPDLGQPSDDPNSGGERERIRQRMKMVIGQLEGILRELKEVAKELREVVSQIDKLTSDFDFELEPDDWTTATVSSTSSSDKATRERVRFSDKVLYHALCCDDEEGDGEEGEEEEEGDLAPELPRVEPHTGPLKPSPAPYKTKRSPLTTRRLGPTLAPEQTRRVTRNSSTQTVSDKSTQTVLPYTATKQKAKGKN

T3: InSyn1-GFP (full-length Inhibitory Synaptic protein 1 fused to GFP) (mouse) (UniProt Q8CD60)
T3 sequence: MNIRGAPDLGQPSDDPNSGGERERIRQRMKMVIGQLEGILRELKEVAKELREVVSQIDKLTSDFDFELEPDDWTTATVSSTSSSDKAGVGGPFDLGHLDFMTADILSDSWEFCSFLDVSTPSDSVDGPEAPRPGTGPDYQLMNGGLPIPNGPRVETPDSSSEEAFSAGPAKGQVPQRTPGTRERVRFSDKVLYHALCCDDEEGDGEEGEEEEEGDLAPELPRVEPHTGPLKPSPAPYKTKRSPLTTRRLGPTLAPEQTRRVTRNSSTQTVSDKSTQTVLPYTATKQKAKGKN

T4: InSyn1ΔC-GFP (InSyn1 lacking a.a. 181-292, fused to GFP) (mouse) (UniProt Q8CD60)
T4 sequence: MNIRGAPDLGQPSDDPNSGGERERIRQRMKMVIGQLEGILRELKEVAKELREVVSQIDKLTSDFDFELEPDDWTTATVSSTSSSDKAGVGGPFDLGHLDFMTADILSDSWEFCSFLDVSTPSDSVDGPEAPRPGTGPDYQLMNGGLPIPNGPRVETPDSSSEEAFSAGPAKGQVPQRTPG

T5: InSyn1ΔN-GFP (InSyn1 lacking a.a. 1-60, fused to GFP) (mouse) (UniProt Q8CD60)
T5 sequence: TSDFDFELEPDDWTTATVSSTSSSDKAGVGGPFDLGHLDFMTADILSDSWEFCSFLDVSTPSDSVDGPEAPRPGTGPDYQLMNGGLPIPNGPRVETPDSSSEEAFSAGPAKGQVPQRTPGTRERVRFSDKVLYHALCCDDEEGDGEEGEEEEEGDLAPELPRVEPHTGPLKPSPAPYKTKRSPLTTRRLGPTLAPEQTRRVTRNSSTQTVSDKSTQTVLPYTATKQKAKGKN


Key:
Assay in all cases: co-IP; GFP-tagged InSyn1 constructs co-expressed with HA-tagged proteins in HEK293T cells; lysate (25 mM Hepes pH 7.4, 150 mM NaCl, 1 mM EDTA, 1% Nonidet P-40) incubated with GFP-Trap agarose; beads washed with lysis buffer; immunoblot with anti-HA and anti-GFP
[1] = target: T1, InSyn1ΔM1-GFP (InSyn1 lacking a.a. 61-87, fused to GFP) (mouse)
[2] = target: T2, InSyn1ΔM2-GFP (InSyn1 lacking a.a. 88-180, fused to GFP) (mouse)
[3] = target: T3, InSyn1-GFP (full-length Inhibitory Synaptic protein 1 fused to GFP) (mouse)
[4] = target: T4, InSyn1ΔC-GFP (InSyn1 lacking a.a. 181-292, fused to GFP) (mouse)
[5] = target: T5, InSyn1ΔN-GFP (InSyn1 lacking a.a. 1-60, fused to GFP) (mouse)

Row | binding [1] | binding [2] | binding [3] | binding [4] | binding [5] | Binder
1 | binds | binds | binds | binds | binds | HA-gephyrin (protein, UniProt Q8BUV3 1-769) MATEGMILTNHDHQIRVGVLTVSDSCFRNLAEDRSGINLKDLVQDPSLLGGTISAYKIVPDEIEEIKETLIDWCDEKELNLILTTGGTGFAPRDVTPEATKEVIEREAPGMALAMLMGSLNVTPLGMLSRPVCGIRGKTLIINLPGSKKGSQECFQFILPALPHAIDLLRDAIVKVKEVHDELEDLPSPPPPLSPPPTTSPHKQTEDKGVQCEEEEEEKKDSGVASTEDSSSSHITAAALAAKIPDSIISRGVQVLPRDTASLSTTPSESPRAQATSRLSTASCPTPKQIRRPDESKGVASRVGSLKARLPSCSSTYSVSEVQSRCSSKENILRASHSAVDITKVARRHRMSPFPLTSMDKAFITVLEMTPVLGTEIINYRDGMGRVLAQDVYAKDNLPPFPASVKDGYAVRAADGPGDRFIIGESQAGEQPTQTVMPGQVMRVTTGAPIPCGADAVVQVEDTELIRESDDGTEELEVRILVQARPGQDIRPIGHDIKRGECVLAKGTHMGPSEIGLLATVGVTEVEVNKFPVVAVMSTGNELLNPEDDLLPGKIRDSNRSTLLATIQEHGYPTINLGIVGDNPDDLLNALNEGISRADVIITSGGVSMGEKDYLKQVLDIDLHAQIHFGRVFMKPGLPTTFATLDIDGVRKIIFALPGNPVSAVVTCNLFVVPALRKMQGILDPRPTIIKARLSCDVKLDPRPEYHRCILTWHHQEPLPWAQSTGNQMSSRLMSMRSANGLLMLPPKTEQYVELHKGEVVDVMVIGRL
2 | binds | binds | binds | binds |  | HA-α1-syntrophin (protein, UniProt Q13424 1-505) MASGRRAPRTGLLELRAGAGSGAGGERWQRVLLSLAEDVLTVSPADGDPGPEPGAPREQEPAQLNGAAEPGAGPPQLPEALLLQRRRVTVRKADAGGLGISIKGGRENKMPILISKIFKGLAADQTEALFVGDAILSVNGEDLSSATHDEAVQVLKKTGKEVVLEVKYMKDVSPYFKNSTGGTSVGWDSPPASPLQRQPSSPGPTPRNFSEAKHMSLKMAYVSKRCTPNDPEPRYLEICSADGQDTLFLRAKDEASARSWATAIQAQVNTLTPRVKDELQALLAATSTAGSQDIKQIGWLTEQLPSGGTAPTLALLTEKELLLYLSLPETREALSRPARTAPLIATRLVHSGPSKGSVPYDAELSFALRTGTRHGVDTHLFSVESPQELAAWTRQLVDGCHRAAEGVQEVSTACTWNGRPCSLSVHIDKGFTLWAAEPGAARAVLLRQPFEKLQMSSDDGASLLFLDFGGAEGEIQLDLHSCPKTIVFIIHSFLSAKVTRLGLLA
3 | binds | binds | binds | binds |  | HA-β-dystrobrevin (protein, UniProt O60941 1-627) MIEESGNKRKTMAEKRQLFIEMRAQNFDVIRLSTYRTACKLRFVQKRCNLHLVDIWNMIEAFRDNGLNTLDHTTEISVSRLETVISSIYYQLNKRLPSTHQISVEQSISLLLNFMIAAYDSEGRGKLTVFSVKAMLATMCGGKMLDKLRYVFSQMSDSNGLMIFSKFDQFLKEVLKLPTAVFEGPSFGYTEHSVRTCFPQQRKIMLNMFLDTMMADPPPQCLVWLPLMHRLAHVENVFHPVECSYCRCESMMGFRYRCQQCHNYQLCQNCFWRGHAGGPHSNQHQMKEHSSWKSPAKKLSHAISKSLGCVPTREPPHPVFPEQPEKPLDLAHIVPPRPLTNMNDTMVSHMSSGVPTPTKRLQYSQDIPSHLADEHALIASYVARLQHCARVLDSPSRLDEEHRLIARYAARLAAEAGNVTRPPTDLSFNFDANKQQRQLIAELENKNREILQEIQRLRLEHEQASQPTPEKAQQNPTLLAELRLLRQRKDELEQRMSALQESRRELMVQLEELMKLLKEEEQKQAAQATGSPHTSPTHGGGRPMPMPVRSTSAGSTPTHCPQDSLSGVGGDVQEAFAQGTRRNLRNDLLVAADSITNTMSSLVKELHSAEEGAEEEEEKMQNGKDRG
